Results are given in words; binding and its absence hold for the method and conditions named. For some of these results: Binding seen in cells or lysates may run through a third protein. Some entries that bind do so weakly or less than the wild type.
Assays:
[1] = target: V5-epitope-tagged HSP27 (HSPB1-V5), P182L mutant (human) (UniProt P04792); experiment: co-IP
[2] = target: V5-epitope-tagged HSP27 (HSPB1-V5), wild type (human) (UniProt P04792); experiment: co-IP
[3] = target: V5-epitope-tagged HSP27 (HSPB1-V5), P182L mutant (human) (UniProt P04792); experiment: sucrose gradient fractionation
[4] = target: BAG3-eGFP (Bcl2-associated athanogene 3), wild type (human) (UniProt O95817); experiment: co-IP
[5] = target: BAG3-eGFP IPV mutant (both IPV motifs replaced with GPG) (human) (UniProt O95817); experiment: co-IP

The chains behind the UniProt entries cited, without tags or fusion partners. Where a name states a change or a piece, a line headed by the entry shows the natural chain unless it says otherwise. A line that says so, or that is headed by a name, gives the form on record, which may keep a tag or linker.
UniProt P04792: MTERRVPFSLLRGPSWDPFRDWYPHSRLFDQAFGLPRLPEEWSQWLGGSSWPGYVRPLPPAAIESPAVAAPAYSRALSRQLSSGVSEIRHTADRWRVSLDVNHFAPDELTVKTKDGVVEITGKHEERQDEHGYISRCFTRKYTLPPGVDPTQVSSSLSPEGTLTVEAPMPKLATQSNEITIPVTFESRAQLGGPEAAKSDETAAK
UniProt O95817: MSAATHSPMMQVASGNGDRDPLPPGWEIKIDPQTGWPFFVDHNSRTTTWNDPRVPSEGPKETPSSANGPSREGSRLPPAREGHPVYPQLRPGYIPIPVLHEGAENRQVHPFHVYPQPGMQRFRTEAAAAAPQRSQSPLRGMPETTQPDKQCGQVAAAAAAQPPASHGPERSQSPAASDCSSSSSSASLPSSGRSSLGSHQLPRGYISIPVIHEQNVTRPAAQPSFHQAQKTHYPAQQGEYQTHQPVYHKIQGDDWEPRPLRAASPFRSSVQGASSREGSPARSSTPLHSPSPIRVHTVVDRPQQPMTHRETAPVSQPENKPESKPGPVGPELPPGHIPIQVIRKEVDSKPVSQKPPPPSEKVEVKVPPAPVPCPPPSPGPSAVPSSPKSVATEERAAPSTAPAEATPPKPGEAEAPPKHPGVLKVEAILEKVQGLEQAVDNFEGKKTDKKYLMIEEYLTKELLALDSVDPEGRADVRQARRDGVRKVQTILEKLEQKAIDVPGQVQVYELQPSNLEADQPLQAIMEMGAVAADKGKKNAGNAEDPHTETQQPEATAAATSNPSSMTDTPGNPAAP
BAG3-eGFP IPV mutant (both IPV motifs replaced with GPG) (O95817, form named): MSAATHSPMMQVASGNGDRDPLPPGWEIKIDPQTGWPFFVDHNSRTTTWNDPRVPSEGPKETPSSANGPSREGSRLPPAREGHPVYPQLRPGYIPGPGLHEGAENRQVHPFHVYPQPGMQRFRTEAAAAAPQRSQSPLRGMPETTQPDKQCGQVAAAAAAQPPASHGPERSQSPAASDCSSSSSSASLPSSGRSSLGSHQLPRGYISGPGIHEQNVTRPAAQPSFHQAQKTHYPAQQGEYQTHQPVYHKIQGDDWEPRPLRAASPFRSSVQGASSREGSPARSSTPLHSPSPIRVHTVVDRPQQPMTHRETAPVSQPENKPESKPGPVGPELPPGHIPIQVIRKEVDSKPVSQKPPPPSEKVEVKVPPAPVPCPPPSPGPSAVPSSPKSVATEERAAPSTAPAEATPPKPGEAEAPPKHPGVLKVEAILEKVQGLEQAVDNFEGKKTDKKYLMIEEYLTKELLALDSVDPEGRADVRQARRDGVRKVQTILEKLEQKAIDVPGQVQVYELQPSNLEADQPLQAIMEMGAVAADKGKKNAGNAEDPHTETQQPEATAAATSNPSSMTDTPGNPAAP

Substance	binding [1]	binding [2]	binding [3]	binding [4]	binding [5]
BAG3-eGFP (Bcl2-associated athanogene 3), wild type (from UniProt O95817 1-575)	binds	binds	–	–	–
V5-epitope-tagged HSP27 (HSPB1-V5), P182L mutant (from UniProt P04792 1-205)	–	–	binds	binds	no binding
V5-epitope-tagged HSP27 (HSPB1-V5), wild type (from UniProt P04792 1-205)	–	–	–	binds	no binding
